What all share (type): cell-based
The test system of experiment [1] is Endothelial cells (HUVEC). Put plainly: Neovessels formation inhibition (capillary tube formation on Matrigel). To be noted: Homo sapiens. The procedure:
The capability of compounds to inhibit the formation of capillaries was evaluated in vitro. Twenty thousand Endothelial cells (HUVEC) were placed on a Matrigel matrix and allowed to form capillary tubes in the presence or absence of the compounds overnight. The cells were stained with calcein AM, and the effect of the compounds on capillary tube formation was assessed using an inverted fluorescent microscope (Nikon). The reference compound used in this assay AVE-8063 is 3-amino-deoxycombretastatin A-4.

Experiment [2] concerns HUVEC. As to the kind of experiment: Pre-established vessels disruption (capillary tubes on Matrigel). To be noted: Homo sapiens, HUVEC tubes formed 5 hours, then compounds overnight. The procedure: To explore the effect of the compounds on pre-established vasculature, twenty thousand cells (HUVEC) were seeded and incubated over Matrigel for 5 hours to allow the capillary tubes to form. Then, compounds were added and incubated overnight. The disappearance of existing vasculature was monitored with fluorescent microscopy.

For experiment [3], the system named is K562 cell line. Put plainly: MTT assay: cytotoxicity against the K562 cell line. To be noted: Homo sapiens, K562 cells, 72 h, growth inhibition. How it is done: Assessment of Cell Viability via MTT Assay: Cytotoxicity of compounds against the K562 cell line was assessed using the [3-(4,5-dimethylthiazol-2-yl)-2,5-diphenyl tetrazolium bromide] (MTT) assay. Fifteen thousand tumor cells were seeded into wells of flat-bottomed 96-well plates. An amount of 2 μL of a dilution series of each compound dissolved in DMSO was added to 198 μL of appropriate growth medium at three replicates per concentration and the plates were incubated in a 5% CO2 incubator at 37° C. After 72 h, the number of metabolically active cells was determined by MTT assay. Absorbance of each well was measured at 550 nm on a Tecan Sunrise reader. Dose-response curves for growth inhibition were generated as a percentage of untreated control. IC50 was determined by nonlinear regression (Prism, Graph Pad Software, Inc.).
In general terms: Tetrazolium assays rely on reduction of a dye to a coloured formazan, in cell work by metabolically active cells.

The record followed here is US20130131018A1, “SUBSTITUTED ISOQUINOLINES AND THEIR USE AS TUBULIN POLYMERIZATION INHIBITORS” (Exonhit S.A., priority 2010, published 2013).

For orientation: IC50 means the concentration that inhibits the measured activity by half.

Like-named read-outs stand apart in the source and are kept apart here.

Regarding `COc1cc2c(c(OC)c1OC)-c1ccc(OC)c(=O)cc1[C@@H](NC(C)=O)CC2` [Colchicine, reference compound], the IC50 in experiment [1] (read-out: Neovessels Formation Inhibition Number of Branch Junctions IC50 (nM)) came out at 15.5 nM; in experiment [1] (read-out: Neovessels Formation Inhibition Total Tubule Length IC50 (nM)), 22.1 nM; in experiment [2] (read-out: Pre-established Vessels Disruption Number of Branch Junctions IC50) it was 4.93 nM; in experiment [2] (read-out: Pre-established Vessels Disruption Total Tubule Length IC50) it was 12.7 nM; in experiment [3], 8.52 nM.
